# Binding screen against folded nucleic acids

Targets (5′ to 3′):
TPP: TPP riboswitch RNA three-way junction, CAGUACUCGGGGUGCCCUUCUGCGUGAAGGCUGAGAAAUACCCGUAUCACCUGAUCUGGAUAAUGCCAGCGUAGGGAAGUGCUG. About 160 hits among about 24,000 compounds.
PreQ1: PreQ1 riboswitch RNA pseudoknot, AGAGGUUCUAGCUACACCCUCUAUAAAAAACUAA. From B. subtilis. About 170 hits among about 24,000 compounds.
SAM-II: SAM-II riboswitch RNA pseudoknot, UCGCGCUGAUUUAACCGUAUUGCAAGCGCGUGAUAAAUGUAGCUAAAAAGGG. About 200 hits among about 21,000 compounds.

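The test is a small-molecule microarray: each compound is printed twice on a reactive slide, and binding shows as fluorescence of the labelled oligonucleotide after washing. For the PreQ1, TPP and SAM-II riboswitches the laboratory earlier reported (doi:10.1038/s41467-019-09493-3) 1 µM RNA, 2 h, and a rule that included a mean Z-score above 3 (spot signal-to-noise against the whole library), a score well above that on a control array, and duplicate spots agreeing (coefficient of variation under 100). The data file gives only the calls; its cut-offs may differ, and compounds hitting several targets are kept. A missing hit is not proof of no binding, and a hit is not a measured affinity.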
Key: 1 = hit, 0 = tested without a hit.
The compounds are a random part of those screened.
A target missing from an entry has no call listed here.
A dash means that no call is listed here.

structure,TPP,PreQ1,SAM-II
Oc1cccc(CN2CCC(NC3CCOC4(CCOCC4)C3)CC2)c1 (stereo not given),0,0,0
COC(=O)C1=C(C)OC(N)=C(C#N)C12C(=O)Nc1ccccc12 (stereo not given),0,0,0
CC(C)c1ccc(CNc2ccc3c(c2)ncn3C(C)(C)C)cc1,0,0,0
Cc1nccn1CCC1CCCCN1Cc1cccc(CCN)c1 (stereo not given),0,0,0
CCOc1c(CNCc2ccccn2)cccc1OC,0,0,0
COc1cc(CNCc2ccco2)ccc1OCc1ccc2c(c1)n(C)c(=O)n2C,0,0,-
Cc1ccc(C)c(Nc2nc(-c3cccnc3)cs2)c1,0,0,0
O=C1c2ccc(S(=O)(=O)c3ccc4c(c3)C(=O)N(CCO)C4=O)cc2C(=O)N1CCO,0,0,0
Cc1ccccc1OCC(O)Cn1c(C2CC2)nc2ccccc21 (stereo not given),0,0,-
COc1c(Cl)cc(Cl)cc1-c1cn(Cc2ccc(CO)cc2)nn1,0,0,0
CN(Cc1ccc(CCC(C)(C)O)cc1)CC1(CO)CC1,0,0,0
CC(N[C@H]1C[C@H]1c1ccccc1)c1ccc2c(c1)OCCO2 (stereo not given in full),0,0,0
CSc1nnc(CC2CCN(c3nc(N)nc4[nH]cnc34)CC2)n1C,0,0,0
Cn1nnnc1SCCCNCc1cc(Br)ccc1OCc1ccccc1F,0,0,-
Cc1cc(S(=O)(=O)N2CCCC2)cc(S(=O)(=O)N2CCCC2)c1N,0,0,0
Nc1c(C(=O)Nc2ccc(Cl)cc2)sc2ncccc12,0,0,0
Cc1c(C(=O)O)sc2ncnc(N3CCNC(C(=O)O)C3)c12 (stereo not given),0,0,0
Clc1ccc(-c2noc(-c3cccnc3NCc3ccco3)n2)cc1,0,0,-
COc1cccc([C@@H]2C[C@H](c3c(F)cccc3Cl)n3nc(N)nc3N2)c1,0,0,0
CCCCOc1nc2c(c(=O)n(C)c(=O)n2C)n1C,0,0,0
Cc1cc(C)c(-c2n[nH]c3c2C(c2ccc(Br)cc2)N(CCO)C3=O)c(O)c1 (stereo not given),0,0,-
Cc1cc(NCCCN2CCOCC2)n2nc(-c3cccc(Cl)c3)c(C)c2n1,0,0,-
OC1(CN2CCC(Oc3ccncc3)CC2)CCNC1 (stereo not given),0,0,0
O=C(Nc1cc(-c2ccccc2)n[nH]1)c1ccc(Cl)cc1,0,0,0
Cc1ccc(C)c(NC(=O)c2nnn(Cc3ccccc3)c2N)c1,0,0,0
Cc1ccc2[nH]cc(-c3cccc(N)n3)c2c1,0,0,0
Cc1nc2c(-c3ccccc3)cnn2c(Nc2ccncc2)c1C,0,0,-
Cc1ccc(NC2=CC(=O)CC(C)(C)C2)cc1,0,0,0
COc1ccc(-c2noc(-c3cccnc3NCc3ccccc3Cl)n2)cc1,0,0,-
Nc1c(-c2nc(-c3ccc(Br)cc3)no2)nnn1-c1ccc(F)cc1,0,0,-
c1ccc(CCNC2CCOCC2)cc1,0,0,0
COc1cc2c(NC3CCN(C(C)C)CC3)nc(C3CCCCC3)nc2cc1OCCCN1CCCC1,0,0,0
CCOC(=O)c1snc(-c2ccc(Cl)cc2)c1N,0,0,-
OCc1nc2ccccc2n1CC(O)COc1ccc(Br)cc1 (stereo not given),0,0,0
CC(C)c1ccc(Cn2c(CCCO)nc3ccccc32)cc1,0,0,-
CCCCC(=O)Nc1cccc(C(=O)NCc2csc(N)n2)c1,0,0,0
COc1c(OCCCN2CCOCC2)ccc2c1N=C(NC(=O)c1cnc(N)nc1)N1CCN=C21,0,0,0
COc1ccccc1Nc1cc(C)nc2nc(C)nn12,0,0,0
CC(C)Nc1nc2c(S(=O)(=O)c3ccccc3)nnn2c2ccc(Cl)cc12,0,0,0
CN(CCc1ccccc1)c1nc(CCN)nc2ccccc12,0,0,0
C[C@@]1(O)CCN(Cc2cc(=O)n3ncnc3[nH]2)C[C@@H]1O,0,0,0
N#CC1=C(N)OC2=C(C(=O)CCC2)C1c1ccccc1Br (stereo not given),0,0,0
CCOC(=O)Nc1cc2c(cc1N)OCO2,0,0,0
Cn1c(=O)c(CN2C[C@H](CO)C[C@H](CN3CCOCC3)C2)cc2ccccc21,0,0,0
O=C(c1nc2ccccn2c1F)N1CCN(Cc2ccccc2)CC(O)C1 (stereo not given),0,0,0
O=C(NCCO)C(=O)NCc1cccnc1,0,0,0
COc1ccc(OC)c(C2C(C#N)=C(N)Oc3cc4c(cc32)OCO4)c1 (stereo not given),0,0,0
COc1cc2c(cc1OC)C(C1(O)CCCCC1)NCC2 (stereo not given),0,0,0
N#Cc1c(N)nc2c(c1-c1ccc(Cl)cc1)CCCCC2,0,0,0

The last 4 entries again:

{"structure": "O=C(NCCO)C(=O)NCc1cccnc1", "TPP": "0", "PreQ1": "0", "SAM-II": "0"}
{"structure": "COc1ccc(OC)c(C2C(C#N)=C(N)Oc3cc4c(cc32)OCO4)c1", "stereo": "stereo not given", "TPP": "0", "PreQ1": "0", "SAM-II": "0"}
{"structure": "COc1cc2c(cc1OC)C(C1(O)CCCCC1)NCC2", "stereo": "stereo not given", "TPP": "0", "PreQ1": "0", "SAM-II": "0"}
{"structure": "N#Cc1c(N)nc2c(c1-c1ccc(Cl)cc1)CCCCC2", "TPP": "0", "PreQ1": "0", "SAM-II": "0"}

Source: the ROBIN nucleic acid binder screens (doi:10.1002/anie.202211358).